Results taken from PMC6123492, “Structural and biochemical insights into small RNA 3′ end trimming by Arabidopsis SDN1”.
For part of these data: Negatives hold for the conditions tested. Tags and fusion partners may be left off the protein sequences shown. For part of these data: The comparison behind a weaker result is the experiment's own reference, which may not be listed here. For part of these data: The exact form of at least one protein or probe is not confirmed. For part of these data: At least one verdict rests on a figure or table, not on a statement of the authors.

Tests used:
[1] = target: T1, SDN1 wild type (Arabidopsis thaliana) (UniProt A3KPE8); experiment: EMSA; details: no Mg2+, EMSA: 50 mM Tris pH 8.0, 100 mM NaCl, 1 mM DTT, 2 nM RNA, on ice 30 min, 8% native PAGE in 0.5x TBE, recombinant protein, residues 2-409, protein details: His-SUMO tag removed
T1 sequence (looked up): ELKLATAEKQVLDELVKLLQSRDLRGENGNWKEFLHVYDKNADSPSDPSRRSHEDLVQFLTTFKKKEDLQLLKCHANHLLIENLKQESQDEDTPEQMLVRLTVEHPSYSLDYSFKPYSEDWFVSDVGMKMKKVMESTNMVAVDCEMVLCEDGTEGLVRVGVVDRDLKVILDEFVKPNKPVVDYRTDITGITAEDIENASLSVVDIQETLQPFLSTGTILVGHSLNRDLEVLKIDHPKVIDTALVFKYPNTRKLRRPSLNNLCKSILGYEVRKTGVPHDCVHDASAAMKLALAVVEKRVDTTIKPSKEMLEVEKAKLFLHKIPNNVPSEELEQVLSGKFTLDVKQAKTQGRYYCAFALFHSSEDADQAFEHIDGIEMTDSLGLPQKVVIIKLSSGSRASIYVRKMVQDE

[2] = target: T2, SDN1 ΔC (Arabidopsis thaliana) (UniProt A3KPE8); experiment: UV crosslinking (5-iodoU, 312 nm); details: recombinant protein, residues 2-302, protein details: His-SUMO tag removed
T2 sequence (looked up): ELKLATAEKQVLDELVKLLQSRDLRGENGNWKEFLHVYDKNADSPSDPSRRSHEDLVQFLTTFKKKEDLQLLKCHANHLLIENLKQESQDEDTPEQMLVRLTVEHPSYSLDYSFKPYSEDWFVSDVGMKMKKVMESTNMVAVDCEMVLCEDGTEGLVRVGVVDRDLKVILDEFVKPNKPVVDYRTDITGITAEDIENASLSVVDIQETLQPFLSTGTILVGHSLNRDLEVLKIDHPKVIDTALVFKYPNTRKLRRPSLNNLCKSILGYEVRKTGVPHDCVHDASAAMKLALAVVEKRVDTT

[3] = target: T1, SDN1 wild type (Arabidopsis thaliana); experiment: UV crosslinking (5-iodoU, 312 nm); details: no crosslink at this position only (duplex region); 5-iodoU at 15,16 of strand 2; recombinant protein; residues 2-409; protein details: His-SUMO tag removed; label: 5' 32P on target strand
[4] = target: T3, SDN1 RRM (CTD, EMSA) (Arabidopsis thaliana) (UniProt A3KPE8); experiment: EMSA; details: no Mg2+, EMSA: 50 mM Tris pH 8.0, 100 mM NaCl, 1 mM DTT, 2 nM RNA, on ice 30 min, 8% native PAGE in 0.5x TBE, recombinant protein, residues 298-409, protein details: His-SUMO tag removed, label: 5' 32P
T3 sequence (looked up): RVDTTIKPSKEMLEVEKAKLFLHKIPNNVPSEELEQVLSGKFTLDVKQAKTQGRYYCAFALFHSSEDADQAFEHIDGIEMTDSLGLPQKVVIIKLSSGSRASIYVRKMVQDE

[5] = target: T2, SDN1 ΔC (Arabidopsis thaliana); experiment: EMSA; details: no Mg2+, EMSA: 50 mM Tris pH 8.0, 100 mM NaCl, 1 mM DTT, 2 nM RNA, on ice 30 min, 8% native PAGE in 0.5x TBE, recombinant protein, residues 2-302, protein details: His-SUMO tag removed, label: 5' 32P

| Sequence | binding result ([1]; label: 5' 32P) | binding result ([1]; label: 5' 32P on miR166 strand) | also measured |
| --- | --- | --- | --- |
| AAUCAC [6nt RNA] | binds more weakly |  |  |
| GAGAAAUCAC [10nt RNA] | binds more weakly |  |  |
| GAUUCCCUUGAAGCUUGGUCCGGAUUA [5'-IUU RNA] |  |  | binding result ([2]; no crosslink at 5' position, 5-iodoU at 3,4, label: 32P): no binding |
| UCGGACCAGGCUUCAUCCCCC / GAGGGGGAUGAAGCUUGGUCCGGAUUA [miR166:T0] |  | binds more weakly |  |
| UCGGACCAGGCUUCAUCCCCC / GAUUCCCCUGAAGCUUGGUCCGGAUUA [miR166:T6] |  | binds |  |
| UCGGACCAGGCUUCAUCCCCC / GAUUCCCUUGAAGCUUGGUCCGGAUUA [miR166:5'-IUU] |  |  | binding result ([2]; very weak, 5-iodoU at 3,4 of strand 2, label: 5' 32P on target strand): binds more weakly |
| UCGGACCAGGCUUCAUCCCCC / GAUUCCCUUGAAGCUUGGUCCGGAUUA [miR166:M-IUU] |  |  | binding result ([2]; no crosslink at this position only (duplex region), 5-iodoU at 15,16 of strand 2, label: 5' 32P on target strand): no binding; binding result [3]: no binding |
| UCGGACCAGGCUUCAUCCCCC / GAUUGGGAUGAAGCUUGGUCCGGAUUA [miR166:T2] |  | binds more weakly |  |
| UGCAGAGAGAAAUCAC [16nt RNA] | binds |  |  |
| UUCGCUUGCAGAGAGAAAUCAC [miR173 (22 nt RNA)] |  |  | binding result [4]: binds more weakly; binding result [5]: binds more weakly |
